# Some of the results follow.
# The chains behind the UniProt entries cited, without tags or fusion partners.
# UniProt Q0JBA9, entry or part of it: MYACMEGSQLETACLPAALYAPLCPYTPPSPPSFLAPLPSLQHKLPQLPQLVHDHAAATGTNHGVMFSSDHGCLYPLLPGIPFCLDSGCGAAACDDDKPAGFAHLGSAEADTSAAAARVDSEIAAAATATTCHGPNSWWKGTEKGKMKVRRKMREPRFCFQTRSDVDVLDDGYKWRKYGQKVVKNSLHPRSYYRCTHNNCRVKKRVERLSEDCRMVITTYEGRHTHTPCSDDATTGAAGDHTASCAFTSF
# Target: OsWRKY34 (Oryza sativa, UniProt Q0JBA9 1-250)
# Experiment: protein-binding microarray (RPBM); PBS, 2% BSA, 51.3 ng/ul salmon testes DNA, 50 uM zinc acetate, 200 nM TF, 25 C, 1 h; high values mean tight binding
# Conditions: protein: recombinant; tags: N-terminal polyhistidine and DsRed monomer fusion (pET32a); label: CyDye5-dUTP incorporated in the synthesized complementary strand; 3' TTTTT single-stranded linker to array surface; dsDNA, one strand shown
# Procedure, shortened: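 For the binding signal, per-feature fluorescence intensity was read in arbitrary units on an Axon 4000B scanner. Before scanning, a 2% BSA-blocked custom Agilent array made double-stranded with Cy5-dUTP was washed after 1 h at 25 °C with 200 nM protein and 50 µM zinc acetate. The proteins were Ni–NTA-purified transcription factors with N-terminal polyhistidine and DsRed fusions, expressed in E. coli BL21-CodonPlus.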
row,Sequence,binding signal
1,TTGTGCCTCATCCTTCTCTTCCAATTCCATTCTTACTGCACGGAGTCACCTAGTGCAG,8370 fluorescence intensity (a.u.)
2,AACGATATTTGACCCGATGTTGCCCGGGACTTCTCGCATACGGAGTCACCTAGTGCAG,9270 fluorescence intensity (a.u.)
3,TACACTTCATACCAACTTGTTGCTTCAATTATCCAGCTTTCGGAGTCACCTAGTGCAG,11000 fluorescence intensity (a.u.)
4,ACCTAACCACCATTCCTTGACACCTGCCCGGACCAGTTCTCGGAGTCACCTAGTGCAG,8410 fluorescence intensity (a.u.)
5,GCCCGCACTACCGCGACATCTCCTCGTCGGCGCACAGACCCGGAGTCACCTAGTGCAG,10300 fluorescence intensity (a.u.)
6,ATTCACGAATTATTTTTCGTTTGCCAATATGCCGTTTCGCCGGAGTCACCTAGTGCAG,8320 fluorescence intensity (a.u.)
7,CGCCGCCGCCCCTCGCCTGCCCGACCACCGTCGCCCCTCGCGGAGTCACCTAGTGCAG,8810 fluorescence intensity (a.u.)
8,ACATATTTCGTCTGTTTGAACTAATTTTTTCTATGGTTTGCGGAGTCACCTAGTGCAG,12000 fluorescence intensity (a.u.)
9,ATTATCCATTTAATTTCTTCATCTCCTCAACCAATCACAACGGAGTCACCTAGTGCAG,8290 fluorescence intensity (a.u.)
10,ATTTACACGTAATCTGTGTAATTGGTTTTTTTCTCTATATCGGAGTCACCTAGTGCAG,8960 fluorescence intensity (a.u.)
11,TGCAAGGCTCCTGTCGGGGTCGGGGATCTGTAGGGGCCAGCGGAGTCACCTAGTGCAG,10200 fluorescence intensity (a.u.)
12,AGCAGAGATTTTTACCACGTGTCTCAACAAATAGCCACATCGGAGTCACCTAGTGCAG,8050 fluorescence intensity (a.u.)
13,TACAATAACTTCTCCACCAACATTCTCTTCTCAACCAATACGGAGTCACCTAGTGCAG,8900 fluorescence intensity (a.u.)
14,TTAAGATTCGTGCAATAATTGGGTTGTGGGATGGACTTCTCGGAGTCACCTAGTGCAG,10300 fluorescence intensity (a.u.)
15,TTCATACGTTATAGCGACATGTTTCAGCGTCTGTTTTTATCGGAGTCACCTAGTGCAG,9290 fluorescence intensity (a.u.)
16,ACGCTGAGTGTACGAACGTGTTGTGGGAGGAGGGGATGGACGGAGTCACCTAGTGCAG,8750 fluorescence intensity (a.u.)
17,TTAGTGCATTAGTTGTAATATTGAGATTCACTTACTTTTACGGAGTCACCTAGTGCAG,8460 fluorescence intensity (a.u.)
18,ATGTGCTTCATTCTATCTGGTCAACAATGTATTACACACTCGGAGTCACCTAGTGCAG,11800 fluorescence intensity (a.u.)
19,AATCTTGTCGTTTGTGTTTTTTTTCATCCTATCAAGTTGTCGGAGTCACCTAGTGCAG,14100 fluorescence intensity (a.u.)
20,CACCTTACGCTTCTGCCCTATCGATCACTTGTCGCCTCAGCGGAGTCACCTAGTGCAG,9990 fluorescence intensity (a.u.)
21,TTTCTACTAGTACTCTATTTTTTTCTCTTCTATCACCATTCGGAGTCACCTAGTGCAG,9730 fluorescence intensity (a.u.)

row,Sequence,binding signal
1,CGCGTTCTTCACCGGCATTTCCTCGAACGCCATCCGTGAACGGAGTCACCTAGTGCAG,9370 fluorescence intensity (a.u.)
2,GATTGCTTATCGATATCTCATCCGTCCGATAGTCATATATCGGAGTCACCTAGTGCAG,16300 fluorescence intensity (a.u.)
3,GGCACTAACCAACAAACGCACACTCCACAGCCATCATCGCCGGAGTCACCTAGTGCAG,9430 fluorescence intensity (a.u.)
4,TTATAGGGTTTGTTTATTATGTTGCCACTTTTAACTACACCGGAGTCACCTAGTGCAG,9980 fluorescence intensity (a.u.)
5,TTTCTGCATCTTAATATTTGTAACAAATCTAACGAATACTCGGAGTCACCTAGTGCAG,8170 fluorescence intensity (a.u.)
6,GGATAGAGTAGTTTGTTTGGATCTGATGGTTACACATTGACGGAGTCACCTAGTGCAG,8170 fluorescence intensity (a.u.)
7,GTCCGCATCTCATCCTTCCGCAAGTCCGTATCTCATCCCTCGGAGTCACCTAGTGCAG,10400 fluorescence intensity (a.u.)
8,TTTTGTTTTGTAGTATCTTCTCTGGCTCGATGTCATCATTCGGAGTCACCTAGTGCAG,8900 fluorescence intensity (a.u.)
9,AGCACATTGTTTCAGATCATTCTCGAGATTTCAGCCTTCTCGGAGTCACCTAGTGCAG,9640 fluorescence intensity (a.u.)
10,CATCGATCGCACTAGTGTCGCTCTCTGGAAGTAATAGCCTCGGAGTCACCTAGTGCAG,8110 fluorescence intensity (a.u.)
11,CGTCTCCGCCGCTGCTTGAATCTGCCGCCACCATCACCGCCGGAGTCACCTAGTGCAG,8910 fluorescence intensity (a.u.)
12,CAACTATGACAGGTCACTACTACCAGTAGCATGATGTTAGCGGAGTCACCTAGTGCAG,8170 fluorescence intensity (a.u.)
13,CATGGGAGGCGGGGCCCATTGTTTCTTGTGTTCATGGCCTCGGAGTCACCTAGTGCAG,10300 fluorescence intensity (a.u.)
14,CTCCCATTGACCCATTTATTTGTTGAAACCACGTTTTCGTCGGAGTCACCTAGTGCAG,10100 fluorescence intensity (a.u.)
15,GCACTATTCTTTAGCACCGTACAAGTTCGCGAGCCCAGAACGGAGTCACCTAGTGCAG,9390 fluorescence intensity (a.u.)
16,CCTAGTCTCTTCCTGCTGCTACTGCTGCTGCTCTCGTATTCGGAGTCACCTAGTGCAG,8320 fluorescence intensity (a.u.)
17,CTCTCTCTCTCTCTCGTTCGTTCCCCGGTCAGTCAACCGTCGGAGTCACCTAGTGCAG,10200 fluorescence intensity (a.u.)
18,TTGCCACCACCAAATCAGCTGAGATCTCACTTTTGATTCGCGGAGTCACCTAGTGCAG,8030 fluorescence intensity (a.u.)
19,GCGGCTTCTTCTCGGGGTGGATTTGGTGGTGGTTTTTTTTCGGAGTCACCTAGTGCAG,21500 fluorescence intensity (a.u.)
20,GCGAGCTCCTACGCCGTCAACTTCCCGCCGCTGCTGCCCGCGGAGTCACCTAGTGCAG,8910 fluorescence intensity (a.u.)
21,CAGTTTGCACTGCATCCCGGCGCGACATTACGTCGAACACCGGAGTCACCTAGTGCAG,8240 fluorescence intensity (a.u.)

# Quoted at random: two entries already listed
row,Sequence,binding signal
18,TTGCCACCACCAAATCAGCTGAGATCTCACTTTTGATTCGCGGAGTCACCTAGTGCAG,8030 fluorescence intensity (a.u.)
17,CTCTCTCTCTCTCTCGTTCGTTCCCCGGTCAGTCAACCGTCGGAGTCACCTAGTGCAG,10200 fluorescence intensity (a.u.)

# From publication PMC7819943, “Rice protein-binding microarrays: a tool to detect cis-acting elements near promoter regions in rice”
